Data published in US20230210968A1, “RIBONUCLEOPROTEIN APPROACH TO BOOST THE STING SIGNALING FOR CANCER IMMUNOTHERAPY” (MASSACHUSETTS INSTITUTE OF TECHNOLOGY, priority 2020, published 2023).

Assay: FPLC analysis of cGAMP-induced self-assembly (tetramerization)
Settings: PBS, increasing molar ratios of cGAMP

B1: mSTINGΔTM (mouse STING amino acids 138-378) (other)
chain: LTPAEVSAVCEEKKLNVAHGLAWSYYIGYLRLILPGLQARIRMFNQLHNNMLSGAGSRRLYILFPLDCGVPDNLSVVDPNIRFRDMLPQQNIDRAGIKNRVYSNSVYEILENGQPAGVCILEYATPLQTLFAMSQDAKAGFSREDRLEQAKLFCRTLEEILEDVPESRNNCRLIVYQEPTDGNSFSLSQEVLRHIRQEEKEEVTMNAPMTSVAPPPSVLSQEPRLLISGMDQPLPLRTDLI
notes: Runs as a dimer (~60 kDa) without cGAMP and as a tetramer (~120 kDa) with cGAMP; Entries with this molecule as both partners are self-association; also called mouse STINGΔTM; recombinant transmembrane-deficient STING
  self-assembly on titration with cGAMP (FPLC): transition to a tetrameric conformation
